Experimental data from PMC10193976.
No constants are given. Whether binding was seen depends on the method and setting. For some of these results: Binding seen in cells or lysates may run through a third protein. Some binding calls cover weakened binding; strength is not graded here. For some of these results: Where a sequence is shown, tags or fusion partners need not be part of it. Blank lines part the entries; values can stand above or below the binder they belong to.

Assays:
[1] = target: T1, DmMon1-ΔN (residues 101-528) (Drosophila melanogaster) (UniProt Q9VR38); assay: cryo-EM structure; purified Mon1(101-528)-Ccz1-Bulli complex, plunge frozen on CF-1.2/1.3-3 Cu-50 grids; consensus map at 3.2 Å; both purified
T1 sequence: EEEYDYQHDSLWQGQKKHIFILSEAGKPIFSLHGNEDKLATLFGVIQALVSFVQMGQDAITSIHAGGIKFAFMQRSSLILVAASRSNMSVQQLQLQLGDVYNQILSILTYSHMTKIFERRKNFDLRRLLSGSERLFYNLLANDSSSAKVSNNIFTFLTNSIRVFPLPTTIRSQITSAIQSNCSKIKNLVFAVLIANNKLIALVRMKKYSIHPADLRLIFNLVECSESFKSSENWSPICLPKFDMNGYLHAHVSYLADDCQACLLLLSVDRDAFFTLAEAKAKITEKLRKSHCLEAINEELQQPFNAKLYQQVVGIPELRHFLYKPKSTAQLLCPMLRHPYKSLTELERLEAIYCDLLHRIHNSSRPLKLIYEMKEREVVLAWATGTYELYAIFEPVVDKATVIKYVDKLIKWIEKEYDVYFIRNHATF

[2] = target: T2, DmCcz1-fl (residues 1 to 485) (Drosophila melanogaster) (UniProt Q9VZL5); assay: as above
T2 sequence: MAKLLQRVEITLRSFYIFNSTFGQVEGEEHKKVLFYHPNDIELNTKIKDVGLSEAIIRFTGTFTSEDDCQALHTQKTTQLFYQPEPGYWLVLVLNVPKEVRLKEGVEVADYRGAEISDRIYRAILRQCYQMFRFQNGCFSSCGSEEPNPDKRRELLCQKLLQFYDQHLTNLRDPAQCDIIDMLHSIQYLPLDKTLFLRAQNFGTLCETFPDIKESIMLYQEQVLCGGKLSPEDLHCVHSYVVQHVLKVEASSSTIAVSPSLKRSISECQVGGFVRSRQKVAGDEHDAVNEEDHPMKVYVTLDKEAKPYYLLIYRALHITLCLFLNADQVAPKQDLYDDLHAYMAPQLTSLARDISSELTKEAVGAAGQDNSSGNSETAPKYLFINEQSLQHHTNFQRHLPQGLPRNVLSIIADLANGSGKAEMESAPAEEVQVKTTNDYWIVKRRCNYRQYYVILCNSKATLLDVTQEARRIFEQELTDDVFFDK

[3] = target: T3, GST-MC1 complex (GST-Mon1 and 3×Flag-Ccz1) (Drosophila melanogaster) (UniProt Q9VR38+Q9VZL5); assay: pull-down; purified GST-Mon1/3×Flag-Ccz1 immobilised on GSH agarose, incubated with 3×Flag-GFP-Bulli expressed in HEK293T cells; SDS-PAGE and western blotting; only the target purified
T3 sequence 1: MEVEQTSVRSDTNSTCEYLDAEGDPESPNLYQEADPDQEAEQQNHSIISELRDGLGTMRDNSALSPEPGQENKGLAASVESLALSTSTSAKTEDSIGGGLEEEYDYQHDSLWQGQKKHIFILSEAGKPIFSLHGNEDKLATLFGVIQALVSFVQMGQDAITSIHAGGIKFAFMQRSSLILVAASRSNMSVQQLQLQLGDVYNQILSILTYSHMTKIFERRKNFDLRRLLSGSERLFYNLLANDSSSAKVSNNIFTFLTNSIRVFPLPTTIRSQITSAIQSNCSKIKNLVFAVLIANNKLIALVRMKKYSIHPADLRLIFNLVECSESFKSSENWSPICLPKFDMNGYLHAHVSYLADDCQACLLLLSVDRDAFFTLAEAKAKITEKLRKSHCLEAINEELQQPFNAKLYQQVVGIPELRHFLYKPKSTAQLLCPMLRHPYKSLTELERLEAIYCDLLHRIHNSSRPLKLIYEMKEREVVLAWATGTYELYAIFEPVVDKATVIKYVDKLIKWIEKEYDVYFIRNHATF
T3 sequence 2: T2 sequence

binding [1]: binds
B1: DmCcz1-fl (residues 1 to 485) (protein, UniProt Q9VZL5 1-485)
chain: T2 sequence

binding [2]: binds | binding [1]: binds
B2: DmBulli-fl (residues 1 to 642) (protein, UniProt Q9VRX1 1-642)
chain: MDNSNGIHYIELTPNPIRFDAVSQLTNVFFDDSNKQIFAVRSGGATGVVVKGPGSPDDVVISFCMSDRGGAIRSIKFSPDNQILAVQRKENSVEFICFQGDQPLLQDIITHQVKTLIHGFVWVHNREVALISNTGVEVYTVVPEKRQVRSVKSLSIGIKWFAWCCDANVALLCTSEGNSLIPVLVKQKVITKLPKVDLGNPSRDVQESKVTLGQVYGVLAVLILQSNSTTGLMEVEVHLLNGPGLAPRKCHVLRLSLLGRFAINTVDNLIVVHHQASGTSLLFDISLPGEVINEITYHTPITPGRSIKPFGLKLPSLSPDGQILQCELYSTHWVLFQPNIVIDAKLGCMWFLNLCIEPLCQLISDRIRLTEFLLQRSNGKQMLLKVIGQLVDDQYKGTLLPVLETIFSRINKIYASWVQLELQNQTAQPSNVKTTTLKQSTPPIVLIEQLDMVQIFQRIARRPYTESILMLYLQSLNKFNIAAQEELSKMIISELISNRSFDTLRRLVSYSMLLESKSVACFLLSHSNVDTAISQVAIDMLGRIEAHEIIIEVMLGQGKVIDALRLAKNSMGLEKVPARKFLEAAHKTKDDLIFHSVYRFFQMRNLKLYETLSFPKAEQCTEFIQHYNNTFPADNPTRQPVS

binding [3]: binds
B3: 3×Flag-GFP-Bulli wild type (protein, UniProt Q9VRX1 1-642)
chain: B2 chain
